# Source: the supplement of paper PMC10849652
# Protein sequences, listed by entry. Tags and fused reporters are not part of them. Lines headed by an entry give the natural chain unless they say otherwise; changes in a name come on top.
# UniProt Q8TCB7: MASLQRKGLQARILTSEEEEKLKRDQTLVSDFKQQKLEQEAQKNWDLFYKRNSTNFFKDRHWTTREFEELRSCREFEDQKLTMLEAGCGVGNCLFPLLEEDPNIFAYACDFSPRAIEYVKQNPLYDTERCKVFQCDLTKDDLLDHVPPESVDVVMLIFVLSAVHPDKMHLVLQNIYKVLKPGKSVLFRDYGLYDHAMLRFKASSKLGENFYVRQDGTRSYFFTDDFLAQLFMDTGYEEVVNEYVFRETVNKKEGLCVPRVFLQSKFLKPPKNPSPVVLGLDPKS
# UniProt Q9H1A3: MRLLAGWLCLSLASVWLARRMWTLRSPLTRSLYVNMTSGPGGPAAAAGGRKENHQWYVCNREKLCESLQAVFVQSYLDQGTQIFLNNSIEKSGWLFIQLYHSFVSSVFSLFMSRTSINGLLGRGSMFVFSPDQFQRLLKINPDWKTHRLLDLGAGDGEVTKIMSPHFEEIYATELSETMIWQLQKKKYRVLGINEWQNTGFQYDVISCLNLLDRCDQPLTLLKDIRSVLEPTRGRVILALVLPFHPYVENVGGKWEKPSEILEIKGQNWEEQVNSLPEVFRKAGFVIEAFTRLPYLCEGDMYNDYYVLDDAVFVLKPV
# UniProt Q9H204: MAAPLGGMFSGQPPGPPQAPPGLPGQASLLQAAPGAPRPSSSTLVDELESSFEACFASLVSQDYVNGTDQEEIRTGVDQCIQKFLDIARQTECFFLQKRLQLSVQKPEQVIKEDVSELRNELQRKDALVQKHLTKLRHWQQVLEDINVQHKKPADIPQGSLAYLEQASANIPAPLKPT
# UniProt O95243: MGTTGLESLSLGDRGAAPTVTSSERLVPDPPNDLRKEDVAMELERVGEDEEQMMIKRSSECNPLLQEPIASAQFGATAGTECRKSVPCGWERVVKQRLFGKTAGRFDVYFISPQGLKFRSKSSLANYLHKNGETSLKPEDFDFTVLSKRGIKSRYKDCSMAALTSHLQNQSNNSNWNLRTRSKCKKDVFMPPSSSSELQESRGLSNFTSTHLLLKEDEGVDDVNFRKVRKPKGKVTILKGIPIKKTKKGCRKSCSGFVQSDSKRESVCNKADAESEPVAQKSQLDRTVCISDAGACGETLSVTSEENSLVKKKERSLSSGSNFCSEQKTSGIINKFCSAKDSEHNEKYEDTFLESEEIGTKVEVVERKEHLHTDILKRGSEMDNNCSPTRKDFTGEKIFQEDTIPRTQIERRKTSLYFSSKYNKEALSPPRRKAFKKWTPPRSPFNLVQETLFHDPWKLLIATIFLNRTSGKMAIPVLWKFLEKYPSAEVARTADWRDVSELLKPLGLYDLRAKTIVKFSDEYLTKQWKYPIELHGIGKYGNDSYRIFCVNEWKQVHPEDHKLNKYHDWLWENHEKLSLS
# UniProt Q6ZSS7: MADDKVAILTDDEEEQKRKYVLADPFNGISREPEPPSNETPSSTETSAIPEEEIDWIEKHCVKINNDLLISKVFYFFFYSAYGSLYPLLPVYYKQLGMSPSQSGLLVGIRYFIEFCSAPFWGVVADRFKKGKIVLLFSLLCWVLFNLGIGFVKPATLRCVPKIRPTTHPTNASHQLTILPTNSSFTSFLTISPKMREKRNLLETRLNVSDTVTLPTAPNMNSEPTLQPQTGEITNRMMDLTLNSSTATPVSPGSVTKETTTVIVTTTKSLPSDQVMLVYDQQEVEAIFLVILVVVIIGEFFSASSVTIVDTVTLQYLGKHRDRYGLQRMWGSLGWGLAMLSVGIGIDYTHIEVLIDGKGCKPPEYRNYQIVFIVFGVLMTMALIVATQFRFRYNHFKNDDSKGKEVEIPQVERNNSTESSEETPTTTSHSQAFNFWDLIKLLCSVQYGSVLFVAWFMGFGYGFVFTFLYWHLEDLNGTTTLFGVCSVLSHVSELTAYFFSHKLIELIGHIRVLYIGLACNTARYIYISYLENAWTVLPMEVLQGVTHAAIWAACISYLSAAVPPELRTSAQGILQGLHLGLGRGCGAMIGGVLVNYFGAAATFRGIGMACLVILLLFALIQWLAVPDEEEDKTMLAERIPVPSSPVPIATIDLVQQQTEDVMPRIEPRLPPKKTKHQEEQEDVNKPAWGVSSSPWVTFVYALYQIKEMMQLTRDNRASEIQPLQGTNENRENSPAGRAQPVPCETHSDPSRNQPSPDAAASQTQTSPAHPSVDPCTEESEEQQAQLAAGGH
# UniProt Q8WXB1: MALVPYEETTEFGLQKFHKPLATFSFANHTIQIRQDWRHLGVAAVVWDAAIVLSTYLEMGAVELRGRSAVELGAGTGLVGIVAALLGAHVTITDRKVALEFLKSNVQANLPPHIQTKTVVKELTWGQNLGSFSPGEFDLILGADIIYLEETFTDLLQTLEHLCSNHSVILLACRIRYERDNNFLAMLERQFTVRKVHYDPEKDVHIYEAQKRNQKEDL
# UniProt O15151: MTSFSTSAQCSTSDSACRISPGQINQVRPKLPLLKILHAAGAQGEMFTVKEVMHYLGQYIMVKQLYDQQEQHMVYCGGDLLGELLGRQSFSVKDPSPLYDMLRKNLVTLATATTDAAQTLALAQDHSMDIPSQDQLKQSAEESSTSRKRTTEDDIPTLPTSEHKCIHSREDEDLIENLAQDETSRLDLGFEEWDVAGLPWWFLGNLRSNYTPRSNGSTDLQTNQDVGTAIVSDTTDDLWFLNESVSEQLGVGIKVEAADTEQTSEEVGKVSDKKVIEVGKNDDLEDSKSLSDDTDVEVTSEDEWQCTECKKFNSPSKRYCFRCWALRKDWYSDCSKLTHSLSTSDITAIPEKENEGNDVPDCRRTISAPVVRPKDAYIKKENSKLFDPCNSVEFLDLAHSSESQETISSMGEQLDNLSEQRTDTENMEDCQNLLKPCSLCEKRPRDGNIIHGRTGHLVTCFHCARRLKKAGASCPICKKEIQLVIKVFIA
# UniProt P21741: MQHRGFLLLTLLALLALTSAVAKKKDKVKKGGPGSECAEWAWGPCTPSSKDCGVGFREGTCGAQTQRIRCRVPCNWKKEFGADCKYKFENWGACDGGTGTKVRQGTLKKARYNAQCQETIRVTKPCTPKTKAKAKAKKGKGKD
# UniProt A1L020: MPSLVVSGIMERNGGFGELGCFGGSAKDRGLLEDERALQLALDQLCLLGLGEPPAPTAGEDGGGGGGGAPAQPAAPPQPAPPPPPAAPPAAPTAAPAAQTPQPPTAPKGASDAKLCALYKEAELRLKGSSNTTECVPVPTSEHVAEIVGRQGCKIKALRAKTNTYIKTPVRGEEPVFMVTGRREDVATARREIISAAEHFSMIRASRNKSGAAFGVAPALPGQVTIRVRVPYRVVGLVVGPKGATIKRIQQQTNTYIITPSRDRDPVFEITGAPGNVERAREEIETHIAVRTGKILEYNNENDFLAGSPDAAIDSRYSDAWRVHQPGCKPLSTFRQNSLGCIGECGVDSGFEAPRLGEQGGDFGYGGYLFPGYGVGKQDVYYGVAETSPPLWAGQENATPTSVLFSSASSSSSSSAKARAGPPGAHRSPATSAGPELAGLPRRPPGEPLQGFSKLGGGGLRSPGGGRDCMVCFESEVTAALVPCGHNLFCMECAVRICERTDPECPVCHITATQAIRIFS
# UniProt Q05BQ5, whole entry, looked up: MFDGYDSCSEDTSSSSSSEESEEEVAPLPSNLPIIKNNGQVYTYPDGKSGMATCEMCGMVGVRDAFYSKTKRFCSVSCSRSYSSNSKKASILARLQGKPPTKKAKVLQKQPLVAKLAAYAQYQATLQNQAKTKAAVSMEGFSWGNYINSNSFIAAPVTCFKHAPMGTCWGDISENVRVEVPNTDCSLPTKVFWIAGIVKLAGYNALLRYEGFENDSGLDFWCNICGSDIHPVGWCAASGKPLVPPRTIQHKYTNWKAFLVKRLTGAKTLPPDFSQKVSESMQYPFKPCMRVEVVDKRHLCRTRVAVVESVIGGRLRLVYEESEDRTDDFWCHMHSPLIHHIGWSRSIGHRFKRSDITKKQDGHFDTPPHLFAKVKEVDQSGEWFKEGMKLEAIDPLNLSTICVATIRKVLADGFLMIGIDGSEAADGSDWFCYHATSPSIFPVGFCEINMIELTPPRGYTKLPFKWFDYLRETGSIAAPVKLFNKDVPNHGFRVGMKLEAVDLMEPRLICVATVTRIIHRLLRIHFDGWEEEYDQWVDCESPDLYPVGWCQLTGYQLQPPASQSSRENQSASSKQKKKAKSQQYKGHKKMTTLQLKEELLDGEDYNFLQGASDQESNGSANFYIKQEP
# UniProt O43462: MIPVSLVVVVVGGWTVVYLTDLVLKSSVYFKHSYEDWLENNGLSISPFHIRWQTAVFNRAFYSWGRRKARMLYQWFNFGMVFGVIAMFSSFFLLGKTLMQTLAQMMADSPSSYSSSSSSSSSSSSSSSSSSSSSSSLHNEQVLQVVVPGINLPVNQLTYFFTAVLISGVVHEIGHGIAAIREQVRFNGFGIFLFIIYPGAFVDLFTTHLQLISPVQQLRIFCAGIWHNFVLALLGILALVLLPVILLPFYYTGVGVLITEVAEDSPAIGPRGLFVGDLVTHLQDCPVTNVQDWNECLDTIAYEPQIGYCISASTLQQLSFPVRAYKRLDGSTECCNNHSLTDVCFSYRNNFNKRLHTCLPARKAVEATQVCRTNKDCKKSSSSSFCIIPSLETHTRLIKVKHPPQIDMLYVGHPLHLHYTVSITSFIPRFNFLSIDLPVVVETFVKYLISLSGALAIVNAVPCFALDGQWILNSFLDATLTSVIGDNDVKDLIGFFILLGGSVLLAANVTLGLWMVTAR
# UniProt Q5U5Q3: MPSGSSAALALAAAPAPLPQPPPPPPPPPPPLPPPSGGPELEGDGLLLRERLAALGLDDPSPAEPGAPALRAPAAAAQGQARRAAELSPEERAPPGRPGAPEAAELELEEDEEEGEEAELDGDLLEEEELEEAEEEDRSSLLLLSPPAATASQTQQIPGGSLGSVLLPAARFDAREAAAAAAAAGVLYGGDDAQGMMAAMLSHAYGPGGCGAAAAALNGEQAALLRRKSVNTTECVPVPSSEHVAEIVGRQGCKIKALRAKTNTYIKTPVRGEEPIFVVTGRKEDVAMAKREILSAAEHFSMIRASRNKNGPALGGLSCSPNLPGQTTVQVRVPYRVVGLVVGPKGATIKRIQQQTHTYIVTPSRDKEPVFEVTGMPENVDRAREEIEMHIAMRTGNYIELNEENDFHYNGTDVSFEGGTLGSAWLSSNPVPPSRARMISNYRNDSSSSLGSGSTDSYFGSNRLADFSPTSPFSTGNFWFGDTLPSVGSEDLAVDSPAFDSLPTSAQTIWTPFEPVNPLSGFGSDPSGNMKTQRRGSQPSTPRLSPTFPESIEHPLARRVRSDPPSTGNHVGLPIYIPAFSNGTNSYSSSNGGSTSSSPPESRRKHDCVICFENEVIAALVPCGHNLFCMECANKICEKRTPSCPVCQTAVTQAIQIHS
# UniProt Q5TF39: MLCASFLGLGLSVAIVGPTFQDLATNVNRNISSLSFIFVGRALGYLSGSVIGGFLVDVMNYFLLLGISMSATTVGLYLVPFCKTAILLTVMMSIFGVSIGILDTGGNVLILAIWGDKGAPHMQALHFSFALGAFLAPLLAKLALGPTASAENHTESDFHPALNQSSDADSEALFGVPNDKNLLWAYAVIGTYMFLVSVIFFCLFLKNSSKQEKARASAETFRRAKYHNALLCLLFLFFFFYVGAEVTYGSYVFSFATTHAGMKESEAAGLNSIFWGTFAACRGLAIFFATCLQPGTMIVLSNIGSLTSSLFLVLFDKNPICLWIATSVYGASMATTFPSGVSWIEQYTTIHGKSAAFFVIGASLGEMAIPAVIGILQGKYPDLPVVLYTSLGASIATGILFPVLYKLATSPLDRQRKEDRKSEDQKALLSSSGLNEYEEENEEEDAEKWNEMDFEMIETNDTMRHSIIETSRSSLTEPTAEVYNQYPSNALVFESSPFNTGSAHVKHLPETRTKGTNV
# UniProt A6NJ78: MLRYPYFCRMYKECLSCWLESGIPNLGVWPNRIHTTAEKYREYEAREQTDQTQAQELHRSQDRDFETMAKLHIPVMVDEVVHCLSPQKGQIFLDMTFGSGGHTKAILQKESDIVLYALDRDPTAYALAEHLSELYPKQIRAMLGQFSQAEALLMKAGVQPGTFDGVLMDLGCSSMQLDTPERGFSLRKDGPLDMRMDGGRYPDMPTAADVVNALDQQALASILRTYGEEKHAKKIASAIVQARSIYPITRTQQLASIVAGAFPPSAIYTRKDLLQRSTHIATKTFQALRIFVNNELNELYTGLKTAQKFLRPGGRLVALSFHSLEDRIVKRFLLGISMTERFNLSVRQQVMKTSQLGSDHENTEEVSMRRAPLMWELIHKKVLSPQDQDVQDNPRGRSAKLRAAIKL
# UniProt O75586: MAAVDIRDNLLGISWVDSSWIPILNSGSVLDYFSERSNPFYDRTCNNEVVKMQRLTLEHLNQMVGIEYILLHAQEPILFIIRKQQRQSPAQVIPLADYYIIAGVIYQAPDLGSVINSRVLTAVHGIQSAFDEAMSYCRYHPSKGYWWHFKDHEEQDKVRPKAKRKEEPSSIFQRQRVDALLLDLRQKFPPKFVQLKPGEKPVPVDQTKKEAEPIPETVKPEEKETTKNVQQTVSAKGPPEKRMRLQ
# The list shows a part of the results.
# Experiments:
# Assay in all cases: log2 fold change, soluble protein after heating vs DMSO (PISA); higher = thermal stabilisation; K562 lysate, 10 uM; active = over 0.2 and 3.5 SD of the protein, either way, in both replicates (recomputed)
# [1] = compound: C/C(=N\NC(=O)C1=CC(=CC=C1)S(=O)(=O)N2CCOCC2)/C3=C(C=CC(=C3)Cl)O
# In short: (§1)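 A 30 min treatment with 10 μM compound was applied to crude K562 extract at 1 mg/mL protein in PBS pH 7.4 with 1 mM MgCl2. Heating for 3 min spanned 48°C-58°C, after which aliquots were pooled, adjusted to 0.5% NP-40 at 4°C and spun at 21,000xg for 90 min. TMTpro 16plex LC-MS/MS of the supernatant, with channel sums equalised, gave values recorded as log-two fold change in thermal stability against solvent controls, from duplicates.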
# [2] = compound: C1=CC2=C(C=CC(=C2)/C=C\3/C(=O)NC(=NCC4=CC=CS4)S3)N=C1
# In short: as §1
# [3] = compound: C1=CC2=NC=CN=C2C=C1/C=C/3\C(=O)NC(=O)S3
# In short: as §1
# [4] = compound: C1=CC=C(C=C1)C2=NC(=C(N2)C3=CC=NC=C3)C4=CC(=C(C=C4)Cl)O
# In short: as §1
# [5] = compound: C1=CC=C2C(=C1)C3=NNC4=CC=CC(=C43)C2=O
# In short: as §1
# [6] = compound: C1CCN(C1)C(=O)NC2=CC=CC(=C2)NC3=NC=C(C(=N3)NCCC4=CN=CN4)Br
# In short: as §1
# [7] = compound: C1CN(CCC1(CC2=CC=C(C=C2)Cl)N)C3=NC=NC4=C3C=CN4
# In short: as §1
# IRAK-1-4 Inhibitor I = compound: C1COCCN1CCN2C3=CC=CC=C3N=C2NC(=O)C4=CC(=CC=C4)[N+](=O)[O-] [IRAK-1-4 Inhibitor I]
# In short: as §1
# erlotinib = compound: C#Cc1cccc(Nc2ncnc3cc(OCCOC)c(OCCOC)cc23)c1 [erlotinib]
# In short: as §1
# [8] = compound: C1=CC(=CC=C1C2=NC3=C(N2)C=C(C=C3)C(=O)N)OC4=CC=C(C=C4)Cl
# In short: as §1
target,measurement,setting,value
METTL25 (UniProt Q8N6Q8),log2 fold change,[1],inactive: -0.042
same,log2 fold change,[2],inactive: 0.006
same,log2 fold change,[3],inactive: 0.073
same,log2 fold change,[4],inactive: -0.104
same,log2 fold change,[5],inactive: -0.103
same,log2 fold change,[6],inactive: -0.204
same,log2 fold change,[7],inactive: 0.007
same,log2 fold change,IRAK-1-4 Inhibitor I,inactive: -0.009
METTL6 (UniProt Q8TCB7),log2 fold change,[1],inactive: -0.003
same,log2 fold change,[2],inactive: 0.032
same,log2 fold change,[3],inactive: -0.036
same,log2 fold change,[4],inactive: -0.247
same,log2 fold change,[5],inactive: 0.033
same,log2 fold change,[6],inactive: -0.03
same,log2 fold change,[7],inactive: 0.083
same,log2 fold change,IRAK-1-4 Inhibitor I,inactive: -0.002
MEIS1 (UniProt O00470),log2 fold change,[3],inactive: -0.156
same,log2 fold change,[6],inactive: 0.052
same,log2 fold change,[7],inactive: 0.232
METTL9 (UniProt Q9H1A3),log2 fold change,erlotinib,inactive: 0.111
same,log2 fold change,[8],inactive: -0.238
same,log2 fold change,[3],inactive: 0.027
same,log2 fold change,[4],inactive: 0.044
same,log2 fold change,IRAK-1-4 Inhibitor I,inactive: 0.032
METTL23 (UniProt Q86XA0),log2 fold change,[1],inactive: -0.512
same,log2 fold change,[2],inactive: -0.261
same,log2 fold change,[5],inactive: 0.075
same,log2 fold change,[6],inactive: 0.003
same,log2 fold change,[7],inactive: -0.02
MED29 (UniProt Q9NX70),log2 fold change,erlotinib,inactive: 0.092
same,log2 fold change,[8],inactive: -0.046
same,log2 fold change,[4],inactive: -0.048
same,log2 fold change,IRAK-1-4 Inhibitor I,inactive: 0
METTL7B (UniProt Q6UX53),log2 fold change,erlotinib,inactive: -0.14
same,log2 fold change,[8],inactive: 0
MED28 (UniProt Q9H204),log2 fold change,erlotinib,inactive: 0.057
same,log2 fold change,[8],inactive: 0.039
same,log2 fold change,[4],inactive: 0.045
same,log2 fold change,IRAK-1-4 Inhibitor I,inactive: -0.012
MFAP4 isoform 2 (UniProt P55083),log2 fold change,[6],inactive: -0.006
same,log2 fold change,[7],inactive: -0.177
MBD4 (UniProt O95243),log2 fold change,[6],inactive: -0.075
same,log2 fold change,[7],inactive: -0.06
MFSD6 (UniProt Q6ZSS7),log2 fold change,erlotinib,inactive: 0.107
same,log2 fold change,[8],inactive: -0.016
same,log2 fold change,[3],inactive: -0.026
same,log2 fold change,[4],inactive: -0.075
same,log2 fold change,[6],inactive: -0.17
same,log2 fold change,[7],inactive: 0.08
same,log2 fold change,IRAK-1-4 Inhibitor I,inactive: -0.024
METTL21A (UniProt Q8WXB1),log2 fold change,erlotinib,inactive: -0.074
same,log2 fold change,[8],inactive: -0.011
same,log2 fold change,[3],inactive: 0.019
same,log2 fold change,[4],inactive: -0.027
same,log2 fold change,IRAK-1-4 Inhibitor I,inactive: -0.04
METTL2B (UniProt Q6P1Q9),log2 fold change,[3],inactive: 0.083
MED31 (UniProt Q9Y3C7),log2 fold change,erlotinib,inactive: 0.043
same,log2 fold change,[8],inactive: -0.027
same,log2 fold change,[3],inactive: -0.021
same,log2 fold change,[4],inactive: 0.021
same,log2 fold change,IRAK-1-4 Inhibitor I,inactive: -0.064
MED19 (UniProt A0JLT2),log2 fold change,[1],inactive: 0.083
same,log2 fold change,[2],inactive: -0.031
same,log2 fold change,[3],inactive: 0.047
same,log2 fold change,[4],inactive: 0.06
same,log2 fold change,[5],inactive: 0.001
same,log2 fold change,IRAK-1-4 Inhibitor I,inactive: 0.084
MCRS1 isoform 2 (UniProt Q96EZ8),log2 fold change,[1],inactive: 0.091
same,log2 fold change,[2],inactive: -0.02
same,log2 fold change,[3],inactive: -0.097
same,log2 fold change,[5],inactive: 0.039
METTL5 (UniProt H0YFV5),log2 fold change,erlotinib,inactive: 0.073
same,log2 fold change,[8],inactive: 0.102
same,log2 fold change,[3],inactive: -0.051
MED21 (UniProt Q13503),log2 fold change,erlotinib,inactive: 0.068
same,log2 fold change,[8],inactive: -0.179
same,log2 fold change,[3],inactive: -0.232
same,log2 fold change,[4],inactive: -0.119
same,log2 fold change,[6],inactive: 0.27
same,log2 fold change,[7],inactive: -0.076
same,log2 fold change,IRAK-1-4 Inhibitor I,inactive: -0.073
MDM4 (UniProt O15151),log2 fold change,[1],inactive: 0.045
same,log2 fold change,[2],inactive: -0.122
same,log2 fold change,[5],inactive: -0.137
same,log2 fold change,[6],inactive: -0.603
same,log2 fold change,[7],inactive: 0.358
MDK (UniProt P21741),log2 fold change,erlotinib,inactive: 0.031
same,log2 fold change,[8],inactive: -0.137
same,log2 fold change,[4],inactive: 0.05
same,log2 fold change,[6],inactive: -0.107
same,log2 fold change,[7],inactive: 0.025
same,log2 fold change,IRAK-1-4 Inhibitor I,inactive: -0.046
MEX3A (UniProt A1L020),log2 fold change,[1],inactive: 0.108
same,log2 fold change,[2],inactive: -0.108
same,log2 fold change,[4],inactive: -0.007
same,log2 fold change,[5],inactive: -0.29
same,log2 fold change,IRAK-1-4 Inhibitor I,inactive: 0.168
MBTD1 (UniProt Q05BQ5),log2 fold change,[4],inactive: -0.031
same,log2 fold change,IRAK-1-4 Inhibitor I,inactive: 0.066
MBTPS2 (UniProt O43462),log2 fold change,[6],inactive: 0.024
same,log2 fold change,[7],inactive: 0.129
MEGF8 (UniProt Q7Z7M0),log2 fold change,erlotinib,inactive: 0.045
same,log2 fold change,[8],inactive: 0.016
same,log2 fold change,[3],inactive: 0.013
same,log2 fold change,[4],inactive: 0.075
same,log2 fold change,[6],inactive: -0.116
same,log2 fold change,[7],inactive: 0.071
same,log2 fold change,IRAK-1-4 Inhibitor I,active: -0.36
METTL17 isoform 3 (UniProt Q9H7H0),log2 fold change,[6],inactive: -0.005
same,log2 fold change,[7],inactive: -0.035
MEX3C (UniProt Q5U5Q3),log2 fold change,erlotinib,inactive: -0.044
same,log2 fold change,[8],inactive: 0.11
MFSD14B (UniProt Q5SR56),log2 fold change,erlotinib,inactive: 0.016
same,log2 fold change,[8],inactive: 0.081
same,log2 fold change,[4],inactive: -0.237
same,log2 fold change,[6],inactive: 0.031
same,log2 fold change,[7],inactive: 0.142
same,log2 fold change,IRAK-1-4 Inhibitor I,inactive: 0.105
MFSD11 (UniProt O43934),log2 fold change,erlotinib,inactive: -0.043
same,log2 fold change,[8],inactive: 0.018
same,log2 fold change,[3],inactive: -0.052
same,log2 fold change,[4],inactive: 0.011
same,log2 fold change,IRAK-1-4 Inhibitor I,inactive: 0.01
MEF2C isoform 2 (UniProt Q06413),log2 fold change,[1],inactive: 0.076
same,log2 fold change,[2],inactive: -0.003
same,log2 fold change,[5],inactive: -0.124
same,log2 fold change,[6],inactive: 0.082
same,log2 fold change,[7],inactive: 0.051
MED9 (UniProt Q9NWA0),log2 fold change,[4],inactive: 0.015
same,log2 fold change,IRAK-1-4 Inhibitor I,inactive: -0.047
MFSD4B (UniProt Q5TF39),log2 fold change,erlotinib,inactive: -0.021
same,log2 fold change,[8],inactive: -0.03
same,log2 fold change,[3],inactive: 0.239
same,log2 fold change,[4],inactive: 0.02
same,log2 fold change,[6],inactive: -0.217
same,log2 fold change,[7],inactive: 0.094
same,log2 fold change,IRAK-1-4 Inhibitor I,inactive: -0.078
MCUB (UniProt Q9NWR8),log2 fold change,erlotinib,inactive: 0.048
same,log2 fold change,[8],inactive: -0.069
same,log2 fold change,[3],inactive: 0.209
same,log2 fold change,[4],inactive: 0.048
same,log2 fold change,IRAK-1-4 Inhibitor I,inactive: -0.12
MATK isoform 2 (UniProt P42679),log2 fold change,[4],inactive: -0.077
same,log2 fold change,IRAK-1-4 Inhibitor I,inactive: 0.067
METTL15 (UniProt A6NJ78),log2 fold change,[1],inactive: -0.034
same,log2 fold change,[2],inactive: -0.343
same,log2 fold change,[4],inactive: -0.032
same,log2 fold change,[5],inactive: 0.114
same,log2 fold change,IRAK-1-4 Inhibitor I,inactive: 0.025
MED6 (UniProt O75586),log2 fold change,[1],inactive: -0.261
same,log2 fold change,[2],inactive: -0.004
same,log2 fold change,[3],inactive: 0.051
same,log2 fold change,[4],inactive: 0.07
same,log2 fold change,[5],inactive: 0.009
same,log2 fold change,[6],inactive: 0.011
same,log2 fold change,[7],inactive: -0.087
same,log2 fold change,IRAK-1-4 Inhibitor I,inactive: -0.08

# An excerpt from further up:
target,measurement,setting,value
MBTD1 (UniProt Q05BQ5),log2 fold change,[4],inactive: -0.031
same,log2 fold change,IRAK-1-4 Inhibitor I,inactive: 0.066
MBTPS2 (UniProt O43462),log2 fold change,[6],inactive: 0.024
same,log2 fold change,[7],inactive: 0.129
MEGF8 (UniProt Q7Z7M0),log2 fold change,erlotinib,inactive: 0.045

# 6 entries drawn at random from those above:
target,measurement,setting,value
MED19 (UniProt A0JLT2),log2 fold change,IRAK-1-4 Inhibitor I,inactive: 0.084
METTL15 (UniProt A6NJ78),log2 fold change,[1],inactive: -0.034
MEX3A (UniProt A1L020),log2 fold change,[5],inactive: -0.29
METTL17 isoform 3 (UniProt Q9H7H0),log2 fold change,[7],inactive: -0.035
METTL15 (UniProt A6NJ78),log2 fold change,IRAK-1-4 Inhibitor I,inactive: 0.025
MED21 (UniProt Q13503),log2 fold change,[3],inactive: -0.232
